Assay results: PMC8983781

Chains of the proteins cited; added tags and fusions are not shown. Lines headed by an entry give the natural chain unless they say otherwise; changes in a name come on top. Residues count along the entry.
UniProt P11686: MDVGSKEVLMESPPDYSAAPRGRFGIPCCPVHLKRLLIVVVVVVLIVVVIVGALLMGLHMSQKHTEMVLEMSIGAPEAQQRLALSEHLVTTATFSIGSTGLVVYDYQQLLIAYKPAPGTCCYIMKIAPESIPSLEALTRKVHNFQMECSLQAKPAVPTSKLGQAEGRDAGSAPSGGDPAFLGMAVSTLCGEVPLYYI
UniProt Q9QYI6, residues 24-222: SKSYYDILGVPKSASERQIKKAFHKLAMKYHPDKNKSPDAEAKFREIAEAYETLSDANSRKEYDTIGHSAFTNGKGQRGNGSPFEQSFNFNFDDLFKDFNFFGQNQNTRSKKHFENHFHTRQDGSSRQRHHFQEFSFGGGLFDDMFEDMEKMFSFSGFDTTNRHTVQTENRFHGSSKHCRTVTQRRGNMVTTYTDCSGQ

Legend:
[1] = biological target: SP-C L188Q with the site 3 mutation (human) (UniProt P11686); test: co-IP; 293T cells co-transfected with an SP-C construct and one co-chaperone (BiP co-transfected in the GRP170 experiments; 20 mM NEM in wash and lysis for ERdj5); NP-40 lysates 24 h after transfection, immunoprecipitated with anti-SP-C overnight at 4 °C, Protein A agarose, washed with buffer containing 0.4 M NaCl; co-chaperones detected by western blot; in Fig. 4 signals normalised to SP-C and expressed as percent of parental L188Q
SP-C L188Q (human) = SP-C L188Q (human) (UniProt P11686); test: as above
SP-C Δ exon 4 (human) = SP-C Δ exon 4 (human) (UniProt P11686); test: as above
[2] = biological target: 3HA-tagged SP-C L188Q (human) (UniProt P11686); test: co-IP; 293T cells co-expressing 3HA-tagged L188Q and untagged wild-type SP-C, 35S pulse-labelled for 30 min; lysates immunoprecipitated with anti-HA; reducing SDS-PAGE and phosphorimaging
[3] = substrate: SP-C Δ exon 4 (human) (UniProt P11686); test: co-IP; 293T cells co-transfected with an SP-C construct and one co-chaperone (BiP co-transfected in the GRP170 experiments; 20 mM NEM in wash and lysis for ERdj5); NP-40 lysates 24 h after transfection, immunoprecipitated with anti-SP-C overnight at 4 °C, Protein A agarose, washed with buffer containing 0.4 M NaCl; co-chaperones detected by western blot; in Fig. 4 signals normalised to SP-C and expressed as percent …
[4] = substrate: SP-C L188Q (human) (UniProt P11686); test: as above
[5] = substrate: SP-C L188Q with the site 3 mutation (human) (UniProt P11686); test: as above

Molecule	binding [1]	binding (SP-C L188Q (human))	binding (SP-C Δ exon 4 (human))	binding [2]	binding [3]	binding [4]	binding [5]
ERdj4-3HA (mouse) (from UniProt Q9QYI6 24-222)	binds	binds	binds	–	–	–	–
wild-type surfactant protein C (SP-C) proprotein, untagged (from UniProt P11686)	–	–	–	binds	–	–	–
GRP170 (human) (protein, UniProt Q9Y4L1 33-999) LAVMSVDLGSESMKVAIVKPGVPMEIVLNKESRRKTPVIVTLKENERFFGDSAASMAIKNPKATLRYFQHLLGKQADNPHVALYQARFPEHELTFDPQRQTVHFQISSQLQFSPEEVLGMVLNYSRSLAEDFAEQPIKDAVITVPVFFNQAERRAVLQAARMAGLKVLQLINDNTATALSYGVFRRKDINTTAQNIMFYDMGSGSTVCTIVTYQMVKTKEAGMQPQLQIRGVGFDRTLGGLEMELRLRERLAGLFNEQRKGQRAKDVRENPRAMAKLLREANRLKTVLSANADHMAQIEGLMDDVDFKAKVTRVEFEELCADLFERVPGPVQQALQSAEMSLDEIEQVILVGGATRVPRVQEVLLKAVGKEELGKNINADEAAAMGAVYQAAALSKAFKVKPFVVRDAVVYPILVEFTREVEEEPGIHSLKHNKRVLFSRMGPYPQRKVITFNRYSHDFNFHINYGDLGFLGPEDLRVFGSQNLTTVKLKGVGDSFKKYPDYESKGIKAHFNLDESGVLSLDRVESVFETLVEDSAEEESTLTKLGNTISSLFGGGTTPDAKENGTDTVQEEEESPAEGSKDEPGEQVELKEEAEAPVEDGSQPPPPEPKGDATPEGEKATEKENGDKSEAQKPSEKAEAGPEGVAPAPEGEKKQKPARKRRMVEEIGVELVVLDLPDLPEDKLAQSVQKLQDLTLRDLEKQEREKAANSLEAFIFETQDKLYQPEYQEVSTEEQREEISGKLSAASTWLEDEGVGATTVMLKEKLAELRKLCQGLFFRVEERKKWPERLSALDNLLNHSSMFLKGARLIPEMDQIFTEVEMTTLEKVINETWAWKNATLAEQAKLPATEKPVLLSKDIEAKMMALDREVQYLLNKAKFTKPRPRPKDKNGTRAEPPLNASASDQGEKVIPPAGQTEDAEPISEPEKVETGSEPGDTEPLELGGPGAEPEQKEQSTGQKRPLKNDEL	–	–	–	–	binds	binds	binds
ERdj5 (mouse) (protein, UniProt Q9DC23 33-793) DQNFYSLLGVSKTASSREIRQAFKKLALKLHPDKNPNNPNAHGDFLKINRAYEVLKDEDLRKKYDKYGEKGLEDNQGGQYESWSYYRYDFGIYDDDPEIITLERREFDAAVNSGELWFVNFYSPGCSHCHDLAPTWREFAKEVDGLLRIGAVNCGDDRMLCRMKGVNSYPSLFIFRSGMAAVKYNGDRSKESLVAFAMQHVRSTVTELSTGNFVNAIETAFAAGVGWLITFCSKGEDCLTSQTRLRLSGMLDGLVNVGWVDCDAQDSLCKSLDTTASTTAYFPPGATLNDREKSSVLFLNSLDAKEIYMEIIHNLPDFELLSANQLEDRLAHHRWLVFFHFGKNENANDPELKKLKTLLKNEHIQVGRFDCSSAPGICSDLYVFQPCLAVFKGQGTKEYEIHHGKKILYDILAFAKESVNSHVTTLGPQNFPASDKEPWLVDFFAPWCPPCRALLPELRKASTLLYGQLKVGTLDCTIHEGLCNMYNIQAYPTTVVFNQSSIHEYEGHHSAEQILEFIEDLRNPSVVSLTPSTFNELVKQRKHDEVWMVDFYSPWCHPCQVLMPEWKRMARTLTGLINVGSVDCQQYHSFCTQENVQRYPEIRFYPQKSSKAYQYHSYNGWNRDAYSLRSWGLGFLPQASIDLTPQTFNEKVLQGKTHWVVDFYAPWCGPCQNFAPEFELLARMIKGKVRAGKVDCQAYPQTCQKAGIKAYPSVKLYQYERAKKSIWEEQINSRDAKTIAALIYGKLETLQSQVKRNKDEL	–	–	–	–	binds	binds	binds

These are yes or no findings as the source states them, for the method shown. In cells and extracts the contact can be indirect. Binding can be weak; no strength is given.
